Our source for the binding values is article PMC4427999.

Amino acid sequences for entries named in this document (tags omitted). Residues count along the entry.
UniProt P05106, residues 27-788: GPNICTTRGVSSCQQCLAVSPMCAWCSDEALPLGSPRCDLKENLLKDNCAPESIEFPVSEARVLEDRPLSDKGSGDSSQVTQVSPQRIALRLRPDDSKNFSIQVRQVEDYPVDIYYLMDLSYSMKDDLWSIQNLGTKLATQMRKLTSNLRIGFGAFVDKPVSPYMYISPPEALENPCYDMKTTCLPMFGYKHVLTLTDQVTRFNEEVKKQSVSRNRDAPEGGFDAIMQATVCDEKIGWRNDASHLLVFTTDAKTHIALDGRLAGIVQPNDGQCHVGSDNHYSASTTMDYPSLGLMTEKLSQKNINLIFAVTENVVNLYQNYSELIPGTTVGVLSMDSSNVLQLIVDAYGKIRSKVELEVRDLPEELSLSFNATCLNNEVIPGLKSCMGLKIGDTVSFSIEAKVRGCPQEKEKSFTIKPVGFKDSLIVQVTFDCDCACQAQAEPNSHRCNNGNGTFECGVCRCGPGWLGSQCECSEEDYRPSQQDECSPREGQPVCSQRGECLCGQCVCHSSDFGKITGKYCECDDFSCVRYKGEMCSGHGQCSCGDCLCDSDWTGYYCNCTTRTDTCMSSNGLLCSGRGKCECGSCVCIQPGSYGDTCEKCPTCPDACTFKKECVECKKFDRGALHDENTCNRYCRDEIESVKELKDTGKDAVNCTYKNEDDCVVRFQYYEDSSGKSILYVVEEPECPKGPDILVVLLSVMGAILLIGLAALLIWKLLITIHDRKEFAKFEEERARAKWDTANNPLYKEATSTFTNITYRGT
UniProt Q05397: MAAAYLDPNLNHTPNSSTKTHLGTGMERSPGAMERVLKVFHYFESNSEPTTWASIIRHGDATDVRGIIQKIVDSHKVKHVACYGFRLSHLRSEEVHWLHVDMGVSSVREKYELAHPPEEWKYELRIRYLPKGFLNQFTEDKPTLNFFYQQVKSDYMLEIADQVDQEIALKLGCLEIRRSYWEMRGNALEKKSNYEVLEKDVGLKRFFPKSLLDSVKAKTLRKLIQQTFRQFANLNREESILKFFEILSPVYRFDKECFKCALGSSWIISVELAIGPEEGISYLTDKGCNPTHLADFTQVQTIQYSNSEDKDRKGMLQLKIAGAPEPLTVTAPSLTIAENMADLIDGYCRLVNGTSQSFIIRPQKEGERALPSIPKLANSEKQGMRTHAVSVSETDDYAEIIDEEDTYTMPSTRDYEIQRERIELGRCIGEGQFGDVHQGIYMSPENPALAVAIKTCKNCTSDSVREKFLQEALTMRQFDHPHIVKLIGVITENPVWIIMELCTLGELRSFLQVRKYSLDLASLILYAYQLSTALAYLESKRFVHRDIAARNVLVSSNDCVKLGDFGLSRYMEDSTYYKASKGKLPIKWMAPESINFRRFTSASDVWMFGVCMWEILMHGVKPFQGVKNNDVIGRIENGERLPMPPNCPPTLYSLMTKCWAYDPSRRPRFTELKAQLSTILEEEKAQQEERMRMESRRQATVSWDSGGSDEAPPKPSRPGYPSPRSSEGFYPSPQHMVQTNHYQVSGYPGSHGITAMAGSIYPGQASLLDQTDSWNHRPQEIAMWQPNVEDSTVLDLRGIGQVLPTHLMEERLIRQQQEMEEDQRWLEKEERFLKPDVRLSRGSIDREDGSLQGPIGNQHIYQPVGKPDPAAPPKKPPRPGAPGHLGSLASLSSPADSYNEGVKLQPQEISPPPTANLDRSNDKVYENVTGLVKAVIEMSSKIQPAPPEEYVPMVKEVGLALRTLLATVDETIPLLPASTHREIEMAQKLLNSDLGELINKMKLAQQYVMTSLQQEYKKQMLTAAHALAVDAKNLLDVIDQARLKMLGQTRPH
UniProt Q9Y490: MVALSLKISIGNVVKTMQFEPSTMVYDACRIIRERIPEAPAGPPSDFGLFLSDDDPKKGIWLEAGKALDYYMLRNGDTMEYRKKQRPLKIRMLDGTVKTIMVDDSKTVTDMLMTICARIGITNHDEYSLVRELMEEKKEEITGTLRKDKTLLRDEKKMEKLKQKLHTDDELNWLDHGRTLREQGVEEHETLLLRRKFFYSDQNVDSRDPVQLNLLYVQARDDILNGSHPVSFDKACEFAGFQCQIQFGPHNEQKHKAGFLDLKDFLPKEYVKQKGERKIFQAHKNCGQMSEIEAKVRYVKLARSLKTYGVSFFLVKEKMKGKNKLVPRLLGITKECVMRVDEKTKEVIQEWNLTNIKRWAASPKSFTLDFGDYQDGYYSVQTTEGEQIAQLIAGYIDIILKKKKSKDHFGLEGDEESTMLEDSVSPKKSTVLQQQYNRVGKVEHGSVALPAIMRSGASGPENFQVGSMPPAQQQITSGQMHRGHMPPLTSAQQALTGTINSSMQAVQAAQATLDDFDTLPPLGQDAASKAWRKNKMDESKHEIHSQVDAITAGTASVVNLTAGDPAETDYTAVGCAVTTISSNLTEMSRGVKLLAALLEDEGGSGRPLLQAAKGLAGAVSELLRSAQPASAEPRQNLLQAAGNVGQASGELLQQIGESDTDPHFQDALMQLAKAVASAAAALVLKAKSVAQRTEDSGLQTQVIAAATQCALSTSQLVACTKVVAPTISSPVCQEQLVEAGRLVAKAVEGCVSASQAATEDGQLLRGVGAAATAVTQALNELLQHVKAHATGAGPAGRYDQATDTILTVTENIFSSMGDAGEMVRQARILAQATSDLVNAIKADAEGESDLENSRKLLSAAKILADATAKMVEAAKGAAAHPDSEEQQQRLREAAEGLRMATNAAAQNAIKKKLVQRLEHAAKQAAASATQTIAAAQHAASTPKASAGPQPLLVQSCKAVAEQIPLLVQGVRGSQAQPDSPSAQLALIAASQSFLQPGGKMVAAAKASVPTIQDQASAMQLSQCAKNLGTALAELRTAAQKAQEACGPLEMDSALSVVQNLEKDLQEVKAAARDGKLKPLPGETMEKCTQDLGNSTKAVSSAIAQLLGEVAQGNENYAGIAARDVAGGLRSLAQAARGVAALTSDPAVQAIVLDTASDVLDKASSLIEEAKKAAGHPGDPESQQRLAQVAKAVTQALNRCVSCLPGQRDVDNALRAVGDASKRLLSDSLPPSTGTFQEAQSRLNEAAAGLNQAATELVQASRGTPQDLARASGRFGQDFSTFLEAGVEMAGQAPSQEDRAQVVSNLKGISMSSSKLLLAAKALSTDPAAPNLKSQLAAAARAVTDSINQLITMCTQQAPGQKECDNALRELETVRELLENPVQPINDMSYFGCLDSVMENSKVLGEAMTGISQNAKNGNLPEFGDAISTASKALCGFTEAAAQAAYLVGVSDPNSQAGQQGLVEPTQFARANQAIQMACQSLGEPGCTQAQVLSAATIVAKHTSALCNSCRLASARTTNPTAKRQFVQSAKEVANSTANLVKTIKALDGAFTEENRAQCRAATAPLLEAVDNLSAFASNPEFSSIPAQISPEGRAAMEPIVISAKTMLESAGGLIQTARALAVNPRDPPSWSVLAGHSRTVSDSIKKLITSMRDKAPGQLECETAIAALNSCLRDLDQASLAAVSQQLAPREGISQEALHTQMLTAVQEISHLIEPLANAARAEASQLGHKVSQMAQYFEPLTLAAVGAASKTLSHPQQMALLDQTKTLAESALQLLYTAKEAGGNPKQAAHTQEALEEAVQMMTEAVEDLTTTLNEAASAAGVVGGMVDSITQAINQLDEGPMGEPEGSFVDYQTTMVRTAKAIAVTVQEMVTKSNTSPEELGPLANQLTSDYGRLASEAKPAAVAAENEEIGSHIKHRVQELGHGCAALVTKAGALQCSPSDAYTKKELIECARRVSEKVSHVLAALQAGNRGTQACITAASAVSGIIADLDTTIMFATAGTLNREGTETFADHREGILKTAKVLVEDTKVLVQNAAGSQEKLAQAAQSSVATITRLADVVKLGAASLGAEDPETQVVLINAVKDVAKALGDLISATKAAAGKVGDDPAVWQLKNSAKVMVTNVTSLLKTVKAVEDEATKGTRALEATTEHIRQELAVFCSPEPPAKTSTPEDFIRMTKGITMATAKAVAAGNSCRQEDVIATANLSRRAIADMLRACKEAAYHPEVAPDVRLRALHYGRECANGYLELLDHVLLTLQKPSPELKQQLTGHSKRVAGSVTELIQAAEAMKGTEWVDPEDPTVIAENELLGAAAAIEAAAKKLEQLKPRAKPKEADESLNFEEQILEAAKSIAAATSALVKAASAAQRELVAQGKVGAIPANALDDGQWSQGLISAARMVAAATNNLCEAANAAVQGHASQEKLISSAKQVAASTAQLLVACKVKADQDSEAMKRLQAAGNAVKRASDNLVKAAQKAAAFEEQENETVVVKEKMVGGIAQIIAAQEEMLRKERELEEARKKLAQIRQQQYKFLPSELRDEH

This experiment deals with integrin β3 (human (endogenous in DU-145)) (UniProt P05106). Description: co-IP; immunoprecipitation with an anti-integrin β3 antibody (Pierce Classic IP Kit) from RIPA lysates (100 μg protein) of DU-145 cells, NC RNA and miR-124 mimic transfectants; overnight at 4°C, Protein G Plus/Protein A agarose 1 h at 4°C; western blot for talin 1, FAK and Src.

Results are given in words; binding and its absence hold for the method and conditions named. Binding seen in cells or lysates may run through a third protein. Some results given as binding are weak or reduced against the parent protein; the word gives no strength.

On to “focal adhesion kinase (from UniProt Q05397 1-1052) (enzyme)”, for which the binding entry is recorded as “binds”.

Turning to talin 1 (from UniProt Q9Y490 1-2541), the binding result is “binds”.
